Source: PMC3275592, “Structural and Functional Insights into Endoglin Ligand Recognition and Binding” (PLoS ONE, 2012)
No constants are given. Whether binding was seen depends on the method and setting.

Key:
[1] = target: Endo338, endoglin orphan domain construct (residues 22-337) (human) (UniProt P17813); test: SEC; analytic Superdex 200 10/300 GL, calibrated with standards; buffer A (100 mM Tris-HCl pH 8, 150 mM NaCl); both purified
[2] = target: Endo338, endoglin orphan domain construct (residues 22-337) (human) (UniProt P17813); test: SDS-PAGE under reducing and non-reducing conditions with anti-His6 western blot; 10% SDS gel, 0.5 µg protein; with or without 10 mM DTT (1 h, 65°C); boiled at 95°C for 5 min; disulfide-linked dimer; both purified
[3] = target: Endo338, endoglin orphan domain construct (residues 22-337) (human) (UniProt P17813); test: SAXS; Endo338 at 0.6 to 3.7 mg/ml, 25°C, ID14-3 BioSAXS beamline; molecular mass from I(0) through BSA calibration; both purified

binding [1]: no binding
binding [2]: no binding
binding [3]: no binding (tested: 0.6 to 3.7 mg/ml)
B1: Endo338, endoglin orphan domain construct (residues 22-337) (domain or fragment, UniProt P17813 22-337)
chain: TSLAETVHCDLQPVGPERGEVTYTTSQVSKGCVAQAPNAILEVHVLFLEFPTGPSQLELTLQASKQNGTWPREVLLVLSVNSSVFLHLQALGIPLHLAYNSSLVTFQEPPGVNTTELPSFPKTQILEWAAERGPITSAAELNDPQSILLRLGQAQGSLSFCMLEASQDMGRTLEWRPRTPALVRGCHLEGVAGHKEAHILRVLPGHSAGPRTVTVKVELSCAPGDLDAVLILQGPPYVSWLIDANHNMQIWTTGEYSFKIFPEKNIRGFKLPDTPQGLLGEARMLNASIVASFVELPLASIVSLHASSCGGRLQTS
modifications: Man5NAG2 glycans (5 modelled at their attachment sites)
